Results taken from patent US11260056B2, “Diaminopyrimidine P2X3 and P2X2/3 receptor modulators for use in the treatment of cough” (Afferent Pharmaceuticals, Inc., priority 2015, dated 2022).
At least one compound was matched to its structure with a doubt left.

System: chronic cough patients
Assay: Phase 2b dose-escalation crossover study in chronic cough patients
Format: in vivo, human
Conditions: all doses, 50, 100, 150 and 200 mg twice daily for 4 days; p≤0.002
Description: Cough frequency was measured objectively utilizing a cough recording device, with periodic measurements following Compound 16 treatment compared to a baseline recording.
The 29-patient randomized, double-blind, placebo controlled, Phase 2b crossover study was conducted at 10 clinical sites in the U.S. Patients were randomized to either Compound 16 or placebo arms. Those in the treatment group received Compound 16 50 mg, followed by a titration up to 100 mg, 150 mg and 200 mg, with each dose given twice daily for four days. Treatment period one was followed by a 3-5 day washout period. Patients were then crossed over to the alternate arm of the study and treated with either Compound 16 or placebo for 16 more days.

For `COc1cc(C(C)C)c(Oc2cnc(N)nc2N)cc1S(N)(=O)=O` [Compound 16, 5-(2,4-Diamino-pyrimidin-5-yloxy)-4-isopropyl-2-methoxy-benzenesulfonamide], the “awake cough frequency compared to placebo” value was “statistically significant reduction”.
